From PMC4754773
No constants are given. Whether binding was seen depends on the method and setting. In cells and extracts the contact can be indirect. Here binding means that the protein was enriched with, or labelled near, the bait; the list need not be complete.

Protein sequences, listed by entry. Tags and fused reporters are not part of them.
UniProt P17302: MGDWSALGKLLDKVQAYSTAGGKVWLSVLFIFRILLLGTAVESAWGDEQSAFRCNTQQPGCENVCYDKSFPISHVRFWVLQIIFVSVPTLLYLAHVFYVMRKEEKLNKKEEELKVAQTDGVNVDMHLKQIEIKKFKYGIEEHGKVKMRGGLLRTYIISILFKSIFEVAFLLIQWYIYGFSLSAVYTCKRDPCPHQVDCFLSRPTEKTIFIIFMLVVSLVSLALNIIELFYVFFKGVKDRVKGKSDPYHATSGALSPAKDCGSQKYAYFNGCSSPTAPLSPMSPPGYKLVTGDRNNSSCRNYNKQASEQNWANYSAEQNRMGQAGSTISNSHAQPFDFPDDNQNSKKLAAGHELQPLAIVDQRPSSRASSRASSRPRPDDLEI
UniProt O43823: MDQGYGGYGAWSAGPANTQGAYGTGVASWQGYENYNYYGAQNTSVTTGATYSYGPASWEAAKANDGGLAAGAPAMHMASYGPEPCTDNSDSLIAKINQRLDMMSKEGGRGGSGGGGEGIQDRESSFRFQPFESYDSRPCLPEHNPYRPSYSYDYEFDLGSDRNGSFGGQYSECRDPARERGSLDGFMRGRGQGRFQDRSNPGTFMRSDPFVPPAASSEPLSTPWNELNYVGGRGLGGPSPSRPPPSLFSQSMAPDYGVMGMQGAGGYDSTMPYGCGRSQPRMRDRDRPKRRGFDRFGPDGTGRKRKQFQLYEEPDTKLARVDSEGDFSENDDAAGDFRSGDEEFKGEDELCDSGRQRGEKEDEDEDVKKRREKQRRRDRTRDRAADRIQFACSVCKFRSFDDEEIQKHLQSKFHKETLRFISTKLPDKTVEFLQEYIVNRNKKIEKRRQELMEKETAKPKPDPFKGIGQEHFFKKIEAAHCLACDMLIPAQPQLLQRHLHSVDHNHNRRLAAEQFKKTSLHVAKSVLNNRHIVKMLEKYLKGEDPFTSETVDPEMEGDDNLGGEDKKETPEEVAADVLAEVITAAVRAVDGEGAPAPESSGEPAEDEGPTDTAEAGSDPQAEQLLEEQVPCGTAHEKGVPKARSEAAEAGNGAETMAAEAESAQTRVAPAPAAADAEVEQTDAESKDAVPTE

Target: connexin 43 (human (endogenous in A549 and L-O2)) (UniProt P17302)
Test: affinity purification with mass spectrometry; Co-IP from A549 cells with an anti-Cx43 antibody; products analysed by LTQ tandem mass spectrometry (ESI-MS)

## A-kinase anchoring protein 95 (from UniProt O43823 1-692)
  binding: binds
